These are yes or no findings as the source states them, for the method shown. For some assays here: Binding seen in cells or lysates may run through a third protein. Some binding calls cover weakened binding; strength is not graded here. Sequences can lack the tags named with a protein.
B1: 3×FLAG-His6-TEV-ATG9B overexpressed in HEK293A cells (protein, UniProt Q674R7-1 1-924)
chain: MVSRMGWGGRRRRLGRWGDLGPGSVPLLPMPLPPPPPPSCRGPGGGRISIFSLSPAPHTRSSPSSFSPPTAGPPCSVLQGTGASQSCHSALPIPATPPTQAQPAMTPASASPSWGSHSTPPLAPATPTPSQQCPQDSPGLRVGPLIPEQDYERLEDCDPEGSQDSPIHGEEQQPLLHVPEGLRGSWHHIQNLDSFFTKIYSYHQRNGFACILLEDVFQLGQFIFIVTFTTFLLRCVDYNVLFANQPSNHTRPGPFHSKVTLSDAILPSAQCAERIRSSPLLVLLLVLAAGFWLVQLLRSVCNLFSYWDIQVFYREALHIPPEELSSVPWAEVQSRLLALQRSGGLCVQPRPLTELDIHHRILRYTNYQVALANKGLLPARCPLPWGGSAAFLSRGLALNVDLLLFRGPFSLFRGGWELPHAYKRSDQRGALAARWGRTVLLLAALNLALSPLVLAWQVLHVFYSHVELLRREPGALGARGWSRLARLQLRHFNELPHELRARLARAYRPAAAFLRTAAPPAPLRTLLARQLVFFAGALFAALLVLTVYDEDVLAVEHVLTAMTALGVTATVARSFIPEEQCQGRAPQLLLQTALAHMHYLPEEPGPGGRDRAYRQMAQLLQYRAVSLLEELLSPLLTPLFLLFWFRPRALEIIDFFHHFTVDVAGVGDICSFALMDVKRHGHPQWLSAGQTEASLSQRAEDGKTELSLMRFSLAHPLWRPPGHSSKFLGHLWGRVQQDAAAWGATSARGPSTPGVLSNCTSPLPEAFLANLFVHPLLPPRDLSPTAPCPAAATASLLASISRIAQDPSSVSPGGTGGQKLAQLPELASAEMSLHVIYLHQLHQQQQQQEPWGEAAASILSRPCSSPSQPPSPDEEKPSWSSDGSSPASSPRQQWGTQKARNLFPGGFQVTTDTQKEPDRASCTD
B2: 3×FLAG-6×His-TEV-ATG9B (full-length human ATG9B), purified from Expi293 cells (natural protein, UniProt Q674R7-1 1-924, looked up)
chain: MVSRMGWGGRRRRLGRWGDLGPGSVPLLPMPLPPPPPPSCRGPGGGRISIFSLSPAPHTRSSPSSFSPPTAGPPCSVLQGTGASQSCHSALPIPATPPTQAQPAMTPASASPSWGSHSTPPLAPATPTPSQQCPQDSPGLRVGPLIPEQDYERLEDCDPEGSQDSPIHGEEQQPLLHVPEGLRGSWHHIQNLDSFFTKIYSYHQRNGFACILLEDVFQLGQFIFIVTFTTFLLRCVDYNVLFANQPSNHTRPGPFHSKVTLSDAILPSAQCAERIRSSPLLVLLLVLAAGFWLVQLLRSVCNLFSYWDIQVFYREALHIPPEELSSVPWAEVQSRLLALQRSGGLCVQPRPLTELDIHHRILRYTNYQVALANKGLLPARCPLPWGGSAAFLSRGLALNVDLLLFRGPFSLFRGGWELPHAYKRSDQRGALAARWGRTVLLLAALNLALSPLVLAWQVLHVFYSHVELLRREPGALGARGWSRLARLQLRHFNELPHELRARLARAYRPAAAFLRTAAPPAPLRTLLARQLVFFAGALFAALLVLTVYDEDVLAVEHVLTAMTALGVTATVARSFIPEEQCQGRAPQLLLQTALAHMHYLPEEPGPGGRDRAYRQMAQLLQYRAVSLLEELLSPLLTPLFLLFWFRPRALEIIDFFHHFTVDVAGVGDICSFALMDVKRHGHPQWLSAGQTEASLSQRAEDGKTELSLMRFSLAHPLWRPPGHSSKFLGHLWGRVQQDAAAWGATSARGPSTPGVLSNCTSPLPEAFLANLFVHPLLPPRDLSPTAPCPAAATASLLASISRIAQDPSSVSPGGTGGQKLAQLPELASAEMSLHVIYLHQLHQQQQQQEPWGEAAASILSRPCSSPSQPPSPDEEKPSWSSDGSSPASSPRQQWGTQKARNLFPGGFQVTTDTQKEPDRASCTD
notes: ATG9B, human, canonical isoform 1 (Q674R7-1), full length; residues 191-674 visible in the cryo-EM map; A TEV site lies between the 6×His tag and ATG9B; no cleavage is described; Eluted from the anti-FLAG resin with 3×FLAG peptide; In LMNG-CHS micelles; also called ATG9B homotrimer; pcDNA3.1-3×FLAG-6×His-TEV-ATG9B; source: Expi293, transiently transfected, extracted into detergent micelles, …

By UniProt entry, the sequences of proteins in these tests, tags left out.
UniProt Q2TAZ0: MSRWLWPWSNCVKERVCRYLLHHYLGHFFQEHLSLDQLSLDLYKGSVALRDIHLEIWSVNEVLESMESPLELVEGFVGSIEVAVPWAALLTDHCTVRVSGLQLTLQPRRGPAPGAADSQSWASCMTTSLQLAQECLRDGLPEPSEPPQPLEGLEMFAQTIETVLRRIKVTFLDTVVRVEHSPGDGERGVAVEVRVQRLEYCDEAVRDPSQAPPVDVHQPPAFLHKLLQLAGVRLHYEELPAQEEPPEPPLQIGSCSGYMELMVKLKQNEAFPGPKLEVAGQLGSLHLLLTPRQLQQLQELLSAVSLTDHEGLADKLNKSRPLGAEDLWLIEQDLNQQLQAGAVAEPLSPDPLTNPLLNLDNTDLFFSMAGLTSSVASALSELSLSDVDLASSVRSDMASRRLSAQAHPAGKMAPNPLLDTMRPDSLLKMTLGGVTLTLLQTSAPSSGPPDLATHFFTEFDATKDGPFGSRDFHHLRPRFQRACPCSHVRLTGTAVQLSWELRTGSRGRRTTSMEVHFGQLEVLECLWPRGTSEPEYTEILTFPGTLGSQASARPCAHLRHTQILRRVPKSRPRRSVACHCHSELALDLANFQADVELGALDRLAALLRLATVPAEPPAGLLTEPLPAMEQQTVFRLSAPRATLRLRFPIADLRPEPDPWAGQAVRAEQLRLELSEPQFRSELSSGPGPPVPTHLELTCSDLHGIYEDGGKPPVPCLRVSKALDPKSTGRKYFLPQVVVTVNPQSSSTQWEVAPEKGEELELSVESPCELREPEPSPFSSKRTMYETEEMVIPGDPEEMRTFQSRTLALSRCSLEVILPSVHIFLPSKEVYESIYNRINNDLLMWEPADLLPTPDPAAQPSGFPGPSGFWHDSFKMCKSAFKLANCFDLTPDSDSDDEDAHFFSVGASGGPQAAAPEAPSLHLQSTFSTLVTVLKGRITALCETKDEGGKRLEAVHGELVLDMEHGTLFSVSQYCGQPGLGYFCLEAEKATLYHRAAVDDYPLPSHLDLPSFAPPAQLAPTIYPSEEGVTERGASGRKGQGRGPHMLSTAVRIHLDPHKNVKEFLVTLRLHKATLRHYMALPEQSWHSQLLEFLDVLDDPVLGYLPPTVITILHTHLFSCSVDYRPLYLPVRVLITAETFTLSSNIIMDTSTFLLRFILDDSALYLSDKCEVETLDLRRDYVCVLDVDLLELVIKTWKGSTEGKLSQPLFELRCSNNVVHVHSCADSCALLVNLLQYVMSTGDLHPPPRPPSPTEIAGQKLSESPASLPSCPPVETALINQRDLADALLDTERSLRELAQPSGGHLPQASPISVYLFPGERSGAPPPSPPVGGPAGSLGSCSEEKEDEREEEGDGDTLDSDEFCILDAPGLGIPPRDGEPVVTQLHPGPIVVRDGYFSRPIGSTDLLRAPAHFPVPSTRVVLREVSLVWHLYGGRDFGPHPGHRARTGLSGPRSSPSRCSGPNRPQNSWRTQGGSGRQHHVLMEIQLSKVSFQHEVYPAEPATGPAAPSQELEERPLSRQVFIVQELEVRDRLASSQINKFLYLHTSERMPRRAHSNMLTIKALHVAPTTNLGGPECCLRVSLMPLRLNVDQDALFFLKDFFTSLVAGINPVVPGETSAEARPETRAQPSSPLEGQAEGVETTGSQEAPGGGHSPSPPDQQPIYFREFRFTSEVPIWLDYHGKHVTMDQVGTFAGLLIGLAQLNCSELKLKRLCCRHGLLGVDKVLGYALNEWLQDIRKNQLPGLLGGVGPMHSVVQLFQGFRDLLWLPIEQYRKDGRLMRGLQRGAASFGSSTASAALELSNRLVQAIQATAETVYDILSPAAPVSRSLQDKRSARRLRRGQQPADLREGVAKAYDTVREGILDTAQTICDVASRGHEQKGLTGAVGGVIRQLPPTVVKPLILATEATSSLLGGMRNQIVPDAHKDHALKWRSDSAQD

Experiments:
[1] = target: eGFP-ATG2A overexpressed in HEK293A cells (UniProt Q2TAZ0); assay: co-IP; GFP-TRAP beads on lysates of HEK293A cells overexpressing GFP-ATG2A and 3×FLAG-6×His-ATG9A or -ATG9B; TNTE buffer (0.5% Triton X-100), overnight at 4°C; western blot
[2] = target: 3×FLAG-ATG2A expressed in Expi293 cells, co-purified with ATG9B (UniProt Q2TAZ0); assay: cryo-EM 2D class averages of the co-purified complex; cells expressing ATG9B and cells expressing ATG2A mixed after resuspension; complex purified on anti-FLAG resin and by SEC in LMNG-CHS, then imaged; no 3D reconstruction obtained; both purified

| Binder | binding [1] | binding [2] |
| --- | --- | --- |
| B1 | binds | – |
| B2 | – | binds |

From article PMC10936676, “ATG9B is a tissue-specific homotrimeric lipid scramblase that can compensate for ATG9A” (Autophagy, 2023)
